No constants are given. Whether binding was seen depends on the method and setting. Some results given as binding are weak or reduced against the parent protein; the word gives no strength.
Legend:
[1] = target: human MerTK extracellular domain (ECD), recombinant (human) (UniProt Q12866); assay: SPR, Carterra LSA
[2] = target: cyno MerTK extracellular domain (ECD), recombinant (cynomolgus monkey); assay: SPR, Carterra LSA
[3] = target: human MerTK endogenously expressed on cells (SK-MEL-5 cells; human macrophages) (human) (UniProt Q12866); assay: flow cytometry on SK-MEL-5 cells
[4] = target: human MerTK endogenously expressed on cells (SK-MEL-5 cells; human macrophages) (human) (UniProt Q12866); assay: flow cytometry on SK-MEL-5 cells (endogenous human MerTK), APC anti-human kappa detection, MFI
[5] = target: Recombinant human MerTK human Fc Chimera protein (R&D systems, Cat #391-MR-100) (human) (UniProt Q12866); assay: competition ELISA: His-tagged Gas6 (3 ug/ml) binding to captured human MerTK-Fc, anti-His-HRP detection; blocked ligand Gas6

Amino acid sequences for entries named in this document (tags omitted). A change or cut given only in a name is not applied to a line headed by its entry.
UniProt Q12866: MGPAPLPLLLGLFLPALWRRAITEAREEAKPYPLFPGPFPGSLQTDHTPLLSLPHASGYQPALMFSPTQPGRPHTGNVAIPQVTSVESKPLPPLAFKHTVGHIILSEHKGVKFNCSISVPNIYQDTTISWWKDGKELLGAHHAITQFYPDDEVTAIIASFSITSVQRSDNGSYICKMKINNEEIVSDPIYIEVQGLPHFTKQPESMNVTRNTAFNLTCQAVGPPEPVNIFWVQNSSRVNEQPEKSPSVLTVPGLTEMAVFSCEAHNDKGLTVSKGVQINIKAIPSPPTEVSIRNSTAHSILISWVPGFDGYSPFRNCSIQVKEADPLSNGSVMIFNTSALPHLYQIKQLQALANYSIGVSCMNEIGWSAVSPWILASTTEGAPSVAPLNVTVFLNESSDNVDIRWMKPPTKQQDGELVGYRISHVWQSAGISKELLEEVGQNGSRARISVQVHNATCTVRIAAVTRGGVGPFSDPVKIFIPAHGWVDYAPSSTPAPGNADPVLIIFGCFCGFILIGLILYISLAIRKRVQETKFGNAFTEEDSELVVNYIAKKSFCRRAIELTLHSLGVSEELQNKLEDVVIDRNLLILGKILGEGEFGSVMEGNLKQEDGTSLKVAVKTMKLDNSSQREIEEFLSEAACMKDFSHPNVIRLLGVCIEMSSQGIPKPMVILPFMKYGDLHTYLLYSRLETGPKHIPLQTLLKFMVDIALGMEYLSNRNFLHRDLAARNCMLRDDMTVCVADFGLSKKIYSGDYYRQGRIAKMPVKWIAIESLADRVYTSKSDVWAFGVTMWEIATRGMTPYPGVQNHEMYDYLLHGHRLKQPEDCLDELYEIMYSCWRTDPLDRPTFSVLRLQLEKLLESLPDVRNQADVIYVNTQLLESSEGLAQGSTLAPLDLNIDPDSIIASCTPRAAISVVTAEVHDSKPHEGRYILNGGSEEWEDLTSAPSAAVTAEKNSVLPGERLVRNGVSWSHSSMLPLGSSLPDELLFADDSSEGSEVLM

Measured: binding

B1: MTK-16 (antibody, human IgG1, V domains shown)
VH: LIQLVQSGPELKKPGETVKISCKASGYTFTNHGMNWVKQDPGKGLKWMGWINTYTGEPTYADDFKGRFVFSMETSASAAFLQINNLKNEDTATYFCARKGVTAARYFDYWGQGTTLTVSS
VL: DIVMTQSPKFMSTSVGDRVSITCKASQNVRTAVAWYKKKPGQSPKALINLASNRHTGVPDRFTGSGSGTDFTLTISNVQSEDLADYFCLQHWNYPLTFGGGTKLEIK
binds: [1] | [2] | [3] | [4] | [5]

B2: MTK-27 (antibody, human IgG1, V domains shown)
VH: EVQLQQSGTELVRPGASVKLSCTASGFNIKDDYMHWVQQRPEQGLEWIGWIDPENGNTEYASKFQGKATITADASSNTAYLQLSSLTSEDTAVYYCSTLFSNYFDYWGQGTTLTVSS
VL: DIVMTQSQKFMSTSVGDRVSITCKASQNVRTSVAWYQQKPGQSPKALIYLASNRHTGVPDRFTGSGSGTDFTLTISNVRSEDLADYFCLQHWNYPYTFGGGTKLEIK
binds: [1] | [2]
